# Experimental data published in patent US7205140B2, “Nucleotide sequence for creatinine deiminase and method of use” (CampusGen GmbH, priority 2003, dated 2007).
# At least one structure is not confirmed: it was looked up by name or label, or the drawing left a doubt.
# Tested on: purified heterologously expressed creatinine deiminase from Tissierella creatinini
# Test: Interference studies: compound added to the reaction mixture, creatinine deiminase activity determined (coupled optical test)
# Format: biochemical
# Settings: compound added to standard reaction mixture
# Text: A technique for specifically measuring the creatinine concentration of a sample includes a simple indicator reaction step is provided, whereby no complicated auxiliary measurement reactions are necessary. […] Therefore, the subject creatinine deiminase polypeptide specifically and preferentially interacts with creatinine also in presence of other substrates with high specificity, without undue interference from other molecules which would otherwise compromise the accuracy of the measured value for the creatinine concentration in the sample.
# The activity of the purified recombinant enzyme was determined using a modified enzymatic method developed by Bergmeyer (Bergmeyer, H. U. (1985), Methods of enzymatic analysis 8: 488–507). This method includes the measuring of free ammonia produced during a creatinine deiminase reaction via a coupled optical test, by measuring the […] of NADH consumed by the free ammonia at 340 mm and/or 365 nm. […] One enzyme unit was determined to catalyze the degrading of 1 μmol creatinine/min at 37° C.
# A series of interference studies was performed using the purified and expressed creatinine deiminase polypeptide in the presence of the different serum compounds. The compound was provided to the standard reaction mixture and the creatinine deiminase activity was determined using the methods described above.
row,SMILES,Maximum concentration without interference [mg/L]
1,CC(=O)C(=O)O [Pyruvate],5.9
2,C=CC1=C(C)/C(=C/c2[nH]c(Cc3[nH]c(/C=C4\NC(=O)C(C)=C4C=C)c(C)c3CCC(=O)O)c(CCC(=O)O)c2C)NC1=O [Bilirubin],210
